No constants are given. Whether binding was seen depends on the method and setting. In cells and extracts the contact can be indirect. Some entries that bind do so weakly or less than the wild type.
Biological target: RIP3 (mouse) (mouse (endogenous in CIRI mice)), Q9QZL0
Test: co-IP; endogenous proteins from CIRI mice with or without NAC; antibody on Protein A/G magnetic beads, western blot
Settings: remark: other sources report otherwise

B1: RIP1 (mouse), Q60855 1-656 (protein)
chain: MQPDMSLDNIKMASSDLLEKTDLDSGGFGKVSLCYHRSHGFVILKKVYTGPNRAEYNEVLLEEGKMMHRLRHSRVVKLLGIIIEEGNYSLVMEYMEKGNLMHVLKTQIDVPLSLKGRIIVEAIEGMCYLHDKGVIHKDLKPENILVDRDFHIKIADLGVASFKTWSKLTKEKDNKQKEVSSTTKKNNGGTLYYMAPEHLNDINAKPTEKSDVYSFGIVLWAIFAKKEPYENVICTEQFVICIKSGNRPNVEEILEYCPREIISLMERCWQAIPEDRPTFLGIEEEFRPFYLSHFEEYVEEDVASLKKEYPDQSPVLQRMFSLQHDCVPLPPSRSNSEQPGSLHSSQGLQMGPVEESWFSSSPEYPQDENDRSVQAKLQEEASYHAFGIFAEKQTKPQPRQNEAYNREEERKRRVSHDPFAQQRARENIKSAGARGHSDPSTTSRGIAVQQLSWPATQTVWNNGLYNQHGFGTTGTGVWYPPNLSQMYSTYKTPVPETNIPGSTPTMPYFSGPVADDLIKYTIFNSSGIQIGNHNYMDVGLNSQPPNNTCKEESTSRHQAIFDNTTSLTDEHLNPIRENLGRQWKNCARKLGFTESQIDEIDHDYERDGLKEKVYQMLQKWLMREGTKGATVGKLAQALHQCCRIDLLNHLIRASQS
Q: With B1 as the binder, how does the binding read?
A: Its binding is “binds”.
